According to PubChem BioAssay AID330 (DTP/NCI, 2004):
The list does not hold the whole screen: it is rich in T/C values a quarter to a half above the control, in often repeated tests (any T/C) and in doses without a T/C. Other doses and runs of a compound stand elsewhere. T/C is the treated group as % of the vehicle group. Some entries give survivors of the animals treated and no T/C: the source holds a T/C of zero for them, seemingly a mark for toxic or unscored doses. Some survivor counts are full or nearly so, which does not show that the dose was tolerated: the source hardly ever lists a survival T/C far under the control, and the zero likely stands for such cases as well. Counts of survivors are from the toxicity check (mostly the fifth day) where no day follows; animals may have died later. Schedule codes are those of the source, taken here to give the interval after Q, in days (D) or hours (H), and the number of doses after X. Where survival is the endpoint, the PubChem record calls one and a half times the control and up active, and a quarter to a half above the control has no call in these data; cut-offs in other NCI protocols can differ. Some entries hold several experiments; the values are given in rising order. Some T/C values carry the count of animals alive at the toxicity check (mostly the fifth day); where none is given, no animal had died by that day.

Test system: P388 leukemia ip, CD2F1 mice, survival T/C
Assay: NCI In Vivo Anticancer Drug Screen. Data for tumor model P388 Leukemia (intraperitoneal) in CD2F1 (CDF1) mice
Conditions: T/C endpoint: median survival time, higher T/C = longer survival
[1] = dose: 25.0 mg/kg/injection, schedule: Q01DX009 (ip), vehicle: Klucel (hydroxypropylcellulose) (HPC)
[2] = dose: 50.0 mg/kg/injection, schedule: Q01DX009 (ip), vehicle: Klucel (hydroxypropylcellulose) (HPC)
[3] = dose: 100.0 mg/kg/injection, schedule: Q01DX009 (ip), vehicle: saline with Tween-80
[4] = dose: 200.0 mg/kg/injection, schedule: Q01DX009 (ip), vehicle: saline with Tween-80
[5] = dose: 200.0 mg/kg/injection, schedule: Q01DX005 (ip), vehicle: saline with Tween-80
[6] = dose: 50.0 mg/kg/injection, schedule: Q01DX009 (ip), vehicle: saline with Tween-80

CCC1(O)CC(OC2CC(NC)C(OC3CC(O)C(OC4CC(O)C(O)C(C)O4)C(C)O3)C(C)O2)c2c(cc3c(c2O)C(=O)c2c(O)ccc(O)c2C3=O)C1C(=O)OC (stereo unspecified)
T/C (dose: 25.0 mg/kg/injection, schedule: Q04DX003 (ip), vehicle: Klucel (hydroxypropylcellulose) (HPC)): 134 % of control | T/C (dose: 50.0 mg/kg/injection, schedule: Q04DX003 (ip), vehicle: Klucel (hydroxypropylcellulose) (HPC)): 132 % of control [3 of 6 alive]

CC(C)c1ccc(/C=N\NC(=S)N/N=C\c2ccc(C(C)C)cc2)cc1
survivor count [1]: 6 of 6 | survivor count [2]: 6 of 6

CCNC1CC(C)(O)Cc2cc3c(c(O)c21)C(=O)c1c(O)cc2c(c1C3=O)OC1OC2(C)C(O)C(N(C)C)C1O (stereo unspecified)
T/C (dose: 12.5 mg/kg/injection, schedule: Q01DX009 (ip), vehicle: other): 146 % of control | survivor count (dose: 100.0 mg/kg/injection, schedule: Q01DX009 (ip), vehicle: other): 2 of 6

CS(=O)(=O)OCC1COCC1COS(C)(=O)=O (stereo unspecified)
T/C (dose: 100.0 mg/kg/injection, schedule: Q04DX003 (ip), vehicle: Klucel (hydroxypropylcellulose) (HPC)): 125 % of control [5 of 6 alive] | T/C (dose: 200.0 mg/kg/injection, schedule: Q04DX003 (ip), vehicle: Klucel (hydroxypropylcellulose) (HPC)): 130 % of control | T/C (dose: 400.0 mg/kg/injection, schedule: Q04DX003 (ip), vehicle: Klucel (hydroxypropylcellulose) (HPC)): 144 % of control

CC1CC=[N+]([O-])C1(C)C (stereo unspecified)
survivor count [3]: 6 of 6 | survivor count [4]: 6 of 6

CCCCCC1([N+](=O)[O-])CN(C)CC2CCCCN2C1 (stereo unspecified)
survivor count (dose: 400.0 mg/kg/injection, schedule: Q04DX002 (ip), vehicle: saline): 4 of 6

CCC(c1ccc(OCC(=O)OCCNCCCl)cc1)C(CC)c1ccc(OCC(=O)OCCNCCCl)cc1 (stereo unspecified)
survivor count (dose: 400.0 mg/kg/injection, schedule: Q04DX002 (ip), vehicle: suspension in saline): 1 of 6

COC(=O)[C@@]12OC[C@]34[C@H]([C@@H](O)[C@@H]1O)[C@@]1(C)CC(=O)C(OC(=O)CC(=O)OC5=C(C)[C@@H]6C[C@H]7OC(=O)[C@H](OC(=O)/C=C(\C)C(C)C)[C@H]8[C@]9(C(=O)OC)OC[C@]78[C@H]([C@@H](O)[C@@H]9O)[C@@]6(C)CC5=O)=C(C)[C@@H]1C[C@H]3OC(=O)[C@H](OC(=O)/C=C(\C)C(C)C)[C@@H]24
T/C (dose: 0.38 mg/kg/injection, schedule: Q01DX009 (ip), vehicle: saline + Tween-80 + alcohol): 128 % of control | T/C (dose: 0.75 mg/kg/injection, schedule: Q01DX005 (ip), vehicle: saline + Tween-80 + alcohol): 127 % of control | T/C (dose: 0.75 mg/kg/injection, schedule: Q01DX009 (ip), vehicle: saline + Tween-80 + alcohol): 146 % of control | T/C (dose: 1.5 mg/kg/injection, schedule: Q01DX005 (ip), vehicle: saline + Tween-80 + alcohol): 129 and 132 % of control | T/C (dose: 1.5 mg/kg/injection, schedule: Q01DX009 (ip), vehicle: saline + Tween-80 + alcohol): 140 % of control | T/C (dose: 3.0 mg/kg/injection, schedule: Q01DX005 (ip), vehicle: saline + Tween-80 + alcohol): 125 and 148 % of control | survivor count (dose: 3.0 mg/kg/injection, schedule: Q01DX009 (ip), vehicle: saline + Tween-80 + alcohol): 0 of 6 | T/C (dose: 6.0 mg/kg/injection, schedule: Q01DX005 (ip), vehicle: saline + Tween-80 + alcohol): 138 and 141 % of control | survivor count (dose: 6.0 mg/kg/injection, schedule: Q01DX009 (ip), vehicle: saline + Tween-80 + alcohol): 0 of 6

C[CH2][Sn]([CH2]C)([CH2]C)[NH]S(=O)(=O)c1ccc(C)cc1
survivor count (dose: 6.25 mg/kg/injection, schedule: Q01DX009 (ip), vehicle: Klucel (hydroxypropylcellulose) (HPC)): 5 of 6 | survivor count (dose: 12.5 mg/kg/injection, schedule: Q01DX009 (ip), vehicle: Klucel (hydroxypropylcellulose) (HPC)): 0 of 6

O=C1c2ccccc2C(=O)c2c(I)cccc21
survivor count [5]: 5 of 5

[Cl][Sn]([Cl])([c]1ccccc1)[c]1ccccc1.c1ccncc1.c1ccncc1
T/C (dose: 1.56 mg/kg/injection, schedule: Q01DX009 (ip), vehicle: saline with Tween-80): 126 % of control | T/C (dose: 3.12 mg/kg/injection, schedule: Q01DX009 (ip), vehicle: saline with Tween-80): 132 % of control | T/C (dose: 6.25 mg/kg/injection, schedule: Q01DX009 (ip), vehicle: saline with Tween-80): 141 % of control | survivor count (dose: 12.5 mg/kg/injection, schedule: Q01DX009 (ip), vehicle: saline): 1 of 6 | survivor count [1]: 1 of 6 | survivor count (dose: 25.0 mg/kg/injection, schedule: Q01DX009 (ip), vehicle: saline): 0 of 6 | survivor count [2]: 0 of 6

N=c1c2c(C(N)=O)cn(C3OC(CO)C(O)C3O)c2ncn1N (stereo unspecified)
T/C (dose: 6.25 mg/kg/injection, schedule: Q01DX005 (ip), vehicle: water): 131 % of control | T/C (dose: 12.5 mg/kg/injection, schedule: Q01DX005 (ip), vehicle: water): 132 % of control | T/C (dose: 25.0 mg/kg/injection, schedule: Q01DX005 (ip), vehicle: water): 142 % of control | survivor count (dose: 100.0 mg/kg/injection, schedule: Q01DX005 (ip), vehicle: water): 6 of 6

COc1cccc2c1C(=O)c1c(OC)c3c(c(OC)c1C2=O)C[C@@](O)(C(C)=O)C[C@@H]3OC1CC(N)C(O)C(C)O1 (stereo partly specified)
T/C (dose: 2.0 mg/kg/injection, schedule: Q01DX009 (ip), vehicle: water): 125 % of control | T/C (dose: 32.0 mg/kg/injection, schedule: Q01DX009 (ip), vehicle: water): 127 and 130 % of control | T/C (dose: 64.0 mg/kg/injection, schedule: Q01DX009 (ip), vehicle: water): 143 % of control

CC(=O)NC(CCl)(OC(C)=O)C(=O)OCc1ccc([N+](=O)[O-])cc1 (stereo unspecified)
survivor count (dose: 100.0 mg/kg/injection, schedule: Q01DX001 (ip), vehicle: Klucel (hydroxypropylcellulose) (HPC)): 6 of 6 | survivor count (dose: 200.0 mg/kg/injection, schedule: Q01DX001 (ip), vehicle: Klucel (hydroxypropylcellulose) (HPC)): 6 of 6 | survivor count (dose: 400.0 mg/kg/injection, schedule: Q01DX001 (ip), vehicle: Klucel (hydroxypropylcellulose) (HPC)): 6 of 6

C=C(C)C12CC(C)C34OC5(OC1C3C1OC1(CO)C(O)C1(O)C(OC(=O)c3ccccc3)C(C)C(C(C)CCCCCCC5O)C14)O2 (stereo unspecified)
survivor count (dose: 0.03 mg/kg/injection, schedule: Q01DX009 (ip), vehicle: distilled water + alcohol): 4 of 6 | survivor count (dose: 0.06 mg/kg/injection, schedule: Q01DX009 (ip), vehicle: distilled water + alcohol): 0 of 6 | survivor count (dose: 0.12 mg/kg/injection, schedule: Q01DX009 (ip), vehicle: distilled water + alcohol): 0 of 6 | survivor count (dose: 0.25 mg/kg/injection, schedule: Q01DX009 (ip), vehicle: distilled water + alcohol): 0 of 6 | survivor count (dose: 0.5 mg/kg/injection, schedule: Q01DX009 (ip), vehicle: distilled water + alcohol): 0 of 6 | survivor count (dose: 1.0 mg/kg/injection, schedule: Q01DX009 (ip), vehicle: distilled water + alcohol): 0 of 6 | T/C (dose: 15.0 micrograms/kg/injection, schedule: Q01DX009 (ip), vehicle: distilled water + alcohol): 125 % of control

CC1=CN2C(c3ccccc3)=NON(c3ccc(C)cn3)C2C=C1 (stereo unspecified)
survivor count (dose: 50.0 mg/kg/injection, schedule: Q01DX005 (ip), vehicle: saline with Tween-80): 5 of 5 | survivor count (dose: 100.0 mg/kg/injection, schedule: Q01DX005 (ip), vehicle: saline with Tween-80): 6 of 6

CSc1ncc2c(=O)c3c(ccc4ccccc43)oc2n1
survivor count (dose: 12.5 mg/kg/injection, schedule: Q01DX009 (ip), vehicle: saline with Tween-80): 6 of 6 | survivor count (dose: 25.0 mg/kg/injection, schedule: Q01DX009 (ip), vehicle: saline with Tween-80): 6 of 6 | survivor count [6]: 6 of 6 | survivor count [3]: 6 of 6 | survivor count [4]: 6 of 6

CC(=O)C[n+]1ccccc1Sc1ccc(Cl)cc1
survivor count [5]: 0 of 5

ClC(Cl)=Nc1ccc(Cl)cc1Cl
survivor count (dose: 200.0 mg/kg/injection, schedule: Q01DX009 (ip), vehicle: saline): 2 of 6

COc1cccc(C=Nc2ccccc2O)c1O.[O]=[V]
survivor count (dose: 100.0 mg/kg/injection, schedule: Q01DX009 (ip), vehicle: Klucel (hydroxypropylcellulose) (HPC)): 5 of 6 | survivor count (dose: 200.0 mg/kg/injection, schedule: Q01DX009 (ip), vehicle: Klucel (hydroxypropylcellulose) (HPC)): 0 of 6

O=[N+]([O-])c1ccc(S(=O)(=O)C/C=C/CCl)c([N+](=O)[O-])c1
survivor count [6]: 3 of 6
